Chains of the proteins cited; added tags and fusions are not shown. Residues count along the entry.
UniProt P05622, residues 32-1098: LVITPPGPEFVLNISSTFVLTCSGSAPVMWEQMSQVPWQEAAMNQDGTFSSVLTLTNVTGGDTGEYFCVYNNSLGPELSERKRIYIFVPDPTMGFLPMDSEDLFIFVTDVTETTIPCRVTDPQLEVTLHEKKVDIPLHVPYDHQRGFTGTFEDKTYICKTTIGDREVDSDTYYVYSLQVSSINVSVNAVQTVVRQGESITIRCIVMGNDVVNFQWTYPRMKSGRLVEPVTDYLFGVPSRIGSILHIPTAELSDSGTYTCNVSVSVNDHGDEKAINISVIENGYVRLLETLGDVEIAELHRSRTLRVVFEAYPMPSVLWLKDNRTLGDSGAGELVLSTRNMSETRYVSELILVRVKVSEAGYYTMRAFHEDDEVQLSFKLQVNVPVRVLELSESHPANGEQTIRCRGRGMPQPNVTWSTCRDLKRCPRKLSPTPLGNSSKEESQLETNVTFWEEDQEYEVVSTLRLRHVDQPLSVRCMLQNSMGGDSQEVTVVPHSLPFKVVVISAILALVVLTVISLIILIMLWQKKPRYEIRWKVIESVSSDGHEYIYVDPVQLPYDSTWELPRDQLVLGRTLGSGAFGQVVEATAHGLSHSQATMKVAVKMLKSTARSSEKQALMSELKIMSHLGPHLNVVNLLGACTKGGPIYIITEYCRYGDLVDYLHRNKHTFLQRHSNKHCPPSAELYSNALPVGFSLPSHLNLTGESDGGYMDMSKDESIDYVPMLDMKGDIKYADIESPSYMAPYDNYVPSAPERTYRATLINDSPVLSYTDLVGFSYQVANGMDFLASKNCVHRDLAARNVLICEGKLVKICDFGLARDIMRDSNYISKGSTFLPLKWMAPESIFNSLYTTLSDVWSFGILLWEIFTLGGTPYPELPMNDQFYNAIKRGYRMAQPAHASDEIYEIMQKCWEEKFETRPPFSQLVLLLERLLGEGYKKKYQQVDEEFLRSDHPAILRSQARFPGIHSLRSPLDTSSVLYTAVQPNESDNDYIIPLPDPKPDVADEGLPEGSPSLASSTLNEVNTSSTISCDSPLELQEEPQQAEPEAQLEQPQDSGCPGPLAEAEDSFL
UniProt P26039: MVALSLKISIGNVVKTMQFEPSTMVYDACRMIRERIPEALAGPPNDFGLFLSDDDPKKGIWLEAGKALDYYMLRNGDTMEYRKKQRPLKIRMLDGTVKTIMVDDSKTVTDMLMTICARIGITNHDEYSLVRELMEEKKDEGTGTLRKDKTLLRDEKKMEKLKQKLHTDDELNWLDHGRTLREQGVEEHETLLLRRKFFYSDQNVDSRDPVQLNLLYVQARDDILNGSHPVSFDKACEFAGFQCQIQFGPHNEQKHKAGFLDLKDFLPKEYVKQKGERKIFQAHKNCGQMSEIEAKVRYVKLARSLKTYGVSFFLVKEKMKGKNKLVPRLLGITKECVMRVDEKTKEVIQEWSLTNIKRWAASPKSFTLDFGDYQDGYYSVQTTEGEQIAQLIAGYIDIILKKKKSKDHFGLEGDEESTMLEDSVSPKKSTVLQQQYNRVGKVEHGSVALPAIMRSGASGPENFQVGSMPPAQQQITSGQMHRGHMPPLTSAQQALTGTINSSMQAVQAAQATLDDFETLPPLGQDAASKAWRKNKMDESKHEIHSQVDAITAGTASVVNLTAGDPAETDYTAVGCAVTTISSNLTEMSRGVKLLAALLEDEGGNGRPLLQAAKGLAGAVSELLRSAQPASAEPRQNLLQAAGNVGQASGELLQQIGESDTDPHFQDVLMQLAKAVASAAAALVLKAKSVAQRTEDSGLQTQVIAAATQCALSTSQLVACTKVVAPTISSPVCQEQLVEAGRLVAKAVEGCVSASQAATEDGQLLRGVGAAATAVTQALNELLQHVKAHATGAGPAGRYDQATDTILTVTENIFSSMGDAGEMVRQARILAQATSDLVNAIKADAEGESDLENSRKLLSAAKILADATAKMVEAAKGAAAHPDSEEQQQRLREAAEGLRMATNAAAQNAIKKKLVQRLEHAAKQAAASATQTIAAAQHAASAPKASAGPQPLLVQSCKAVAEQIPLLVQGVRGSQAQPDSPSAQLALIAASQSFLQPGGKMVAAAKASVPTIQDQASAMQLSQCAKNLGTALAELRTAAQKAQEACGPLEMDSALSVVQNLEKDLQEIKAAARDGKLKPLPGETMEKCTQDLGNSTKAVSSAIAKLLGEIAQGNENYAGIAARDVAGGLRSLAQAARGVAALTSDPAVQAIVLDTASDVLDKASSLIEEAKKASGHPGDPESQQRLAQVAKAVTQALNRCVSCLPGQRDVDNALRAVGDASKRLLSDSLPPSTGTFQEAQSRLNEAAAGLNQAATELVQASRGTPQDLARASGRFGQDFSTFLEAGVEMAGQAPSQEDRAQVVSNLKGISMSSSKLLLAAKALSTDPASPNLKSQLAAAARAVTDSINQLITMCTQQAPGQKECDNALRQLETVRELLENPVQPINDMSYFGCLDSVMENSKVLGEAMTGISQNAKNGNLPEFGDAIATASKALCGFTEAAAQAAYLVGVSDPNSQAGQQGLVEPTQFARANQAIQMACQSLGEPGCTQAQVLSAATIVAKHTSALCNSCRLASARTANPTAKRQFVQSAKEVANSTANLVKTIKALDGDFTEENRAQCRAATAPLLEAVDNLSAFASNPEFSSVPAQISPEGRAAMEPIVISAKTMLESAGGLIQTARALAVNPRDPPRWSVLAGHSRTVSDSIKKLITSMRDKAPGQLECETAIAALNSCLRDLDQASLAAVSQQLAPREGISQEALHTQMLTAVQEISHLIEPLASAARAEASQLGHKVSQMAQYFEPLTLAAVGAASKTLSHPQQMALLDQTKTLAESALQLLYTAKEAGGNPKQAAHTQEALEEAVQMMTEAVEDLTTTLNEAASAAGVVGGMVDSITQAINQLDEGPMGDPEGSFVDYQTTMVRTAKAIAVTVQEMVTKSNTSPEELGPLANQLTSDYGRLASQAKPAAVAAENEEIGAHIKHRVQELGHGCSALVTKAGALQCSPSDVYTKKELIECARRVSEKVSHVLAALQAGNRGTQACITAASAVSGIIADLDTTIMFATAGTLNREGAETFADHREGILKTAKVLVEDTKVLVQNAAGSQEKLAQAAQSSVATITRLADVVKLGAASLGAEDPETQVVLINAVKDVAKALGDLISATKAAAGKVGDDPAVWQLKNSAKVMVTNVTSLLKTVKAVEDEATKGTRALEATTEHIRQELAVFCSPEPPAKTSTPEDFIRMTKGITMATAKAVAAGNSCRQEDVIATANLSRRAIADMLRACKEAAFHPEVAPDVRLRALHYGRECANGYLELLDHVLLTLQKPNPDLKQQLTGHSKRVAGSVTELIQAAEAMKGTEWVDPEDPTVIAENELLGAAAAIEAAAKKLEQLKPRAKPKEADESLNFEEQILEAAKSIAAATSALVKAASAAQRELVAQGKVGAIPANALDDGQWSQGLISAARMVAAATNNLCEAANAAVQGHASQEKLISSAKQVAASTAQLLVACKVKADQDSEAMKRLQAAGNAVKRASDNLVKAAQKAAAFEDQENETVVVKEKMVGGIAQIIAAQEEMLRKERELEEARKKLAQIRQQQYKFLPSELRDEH

According to publication PMC9420732:

Biological target: platelet-derived growth factor receptor beta (PDGFR-β) (UniProt P05622)
Test: affinity purification with mass spectrometry; total lysates of BMECs treated with PBS or PDGF-BB (300 ng/mL) for 24 h; immunoprecipitation with an antibody against PDGFR-β, then LC-MS/MS

binding: binds
Substance: talin1 (from UniProt P26039 1-2541)

These are yes or no findings as the source states them, for the method shown. In cells and extracts the contact can be indirect. Here binding means that the protein was enriched with, or labelled near, the bait; the list need not be complete.
